Reference: ChEMBL document CHEMBL1135802, “Pyrrolo[1,3]benzothiazepine-based atypical antipsychotic agents. Synthesis, structure-activity relationship, molecular modeling, and biological studies” (J Med Chem, 2002)

Legend:
[1] = organism: Mus musculus; experiment: animal or person; settings: po
[2] = organism: Rattus norvegicus; settings: in vivo
[3] = organism: Mus musculus; experiment: animal or person; settings: sc
[4] = organism: Mus musculus; experiment: animal or person; settings: sc; remark: listed apart in the source
[5] = organism: Rattus norvegicus; settings: in vivo; remark: listed apart in the source
[6] = organism: Rattus norvegicus; settings: in vivo; remark: listed apart in the source
[7] = organism: Rattus norvegicus; settings: in vivo; remark: listed apart in the source
[8] = organism: Mus musculus; experiment: animal or person; settings: po; remark: listed apart in the source
[9] = organism: Rattus norvegicus; settings: in vivo; remark: listed apart in the source
[10] = organism: Rattus norvegicus; settings: in vivo; remark: listed apart in the source
[11] = organism: Rattus norvegicus; settings: in vivo; remark: listed apart in the source
[12] = organism: Rattus norvegicus; settings: in vivo; remark: listed apart in the source
[13] = organism: Rattus norvegicus; settings: in vivo; remark: listed apart in the source

For `Cc1cc2c(s1)Nc1ccccc1N=C2N1CCN(C)CC1` [OLANZAPINE], which ED50 at 21.2 mg/kg [1] is on record?
The ED50 at 21.2 mg/kg was 67.9 µmol/kg.

What about the AUC [2] of the same compound?
Its AUC is 113.1.

And the ED50 at […] [3]?
Its ED50 at […] is 0.38 µmol/kg.

And the ED50 at […] [4]?
The ED50 at […] was 0.58 µmol/kg.

And the AUC [5]?
Its AUC is 1825.

And the AUC [6]?
The AUC was 157.7.

And the AUC [7]?
Its AUC is 2.8.

And the ED50 at […] [8]?
Its ED50 at […] is 4.65 µmol/kg.

What about the AUC [9] of the same compound?
Its AUC is 220.8.

And the AUC [10]?
The AUC was 20.73.

And the AUC [11]?
The AUC was 143.7.

And the AUC [12]?
Its AUC is 128.4.

What about the AUC [13] of the same compound?
The AUC was 184.7.
